According to patent US9775819B2, “Oral solid dosage form containing nanoparticles and process of formulating the same using fish gelatin” (R.P. SCHERER TECHNOLOGIES, LLC, priority 2009, dated 2017):
At least one compound was matched to its structure with a doubt left.

Assay: Particle size (d50) by laser light diffraction, Malvern Mastersizer 2000
Format: physicochemical
Details: unmilled active ingredient
Excerpt: During step (a) of the method of the invention, the suspension may be recycled if necessary and the process of particle size reduction continued until the desired nanoparticle size of the active ingredient is obtained. The size of the nanoparticles within the nanosuspension is typically measured using well known techniques, such as laser light diffraction methodology using, e.g., a Malvern Mastersizer 2000 particle size analyzer (Malvern Instruments, Westborough Mass.). Particle size measurements are typically described using parameters such as d50, a parameter that represents the size above and below which one finds 50% of the volume of all particles, also known as the volume weighted median. Accordingly, d50 represents a median particle size value. According to the invention, the solution is milled until a d50 ranging preferably from about 1 nm to about 900 nm, more preferably from about 10 nm to about 800 nm, and most preferably from about 50 nm to about 700 nm is achieved.
An oral solid dosage form comprising the active ingredient naproxen and excipients fish gelatin as nanostabilizer (SMW fish gelatin grade from Norland Products Inc.—Example 1A; and DFG grade from Norland Products Inc.—Example 1B) and mannitol as bulking agent was prepared. An aqueous solution of 5% fish gelatin and 3% mannitol was prepared; then naproxen was added to this solution to form a suspension slurry. […]

## CC(C)OC(=O)C(C)(C)Oc1ccc(C(=O)c2ccc(Cl)cc2)cc1 [fenofibrate]
  d50: 30 μm
